Assay results published in article PMC4424349.
No constants are given. Whether binding was seen depends on the method and setting. Binding seen in cells or lysates may run through a third protein. Some entries that bind do so weakly or less than the wild type. For some assays here: Tags and fused reporters may be left off the sequences shown.

By UniProt entry, the sequences of proteins in these tests, tags left out.
UniProt Q8IDR3: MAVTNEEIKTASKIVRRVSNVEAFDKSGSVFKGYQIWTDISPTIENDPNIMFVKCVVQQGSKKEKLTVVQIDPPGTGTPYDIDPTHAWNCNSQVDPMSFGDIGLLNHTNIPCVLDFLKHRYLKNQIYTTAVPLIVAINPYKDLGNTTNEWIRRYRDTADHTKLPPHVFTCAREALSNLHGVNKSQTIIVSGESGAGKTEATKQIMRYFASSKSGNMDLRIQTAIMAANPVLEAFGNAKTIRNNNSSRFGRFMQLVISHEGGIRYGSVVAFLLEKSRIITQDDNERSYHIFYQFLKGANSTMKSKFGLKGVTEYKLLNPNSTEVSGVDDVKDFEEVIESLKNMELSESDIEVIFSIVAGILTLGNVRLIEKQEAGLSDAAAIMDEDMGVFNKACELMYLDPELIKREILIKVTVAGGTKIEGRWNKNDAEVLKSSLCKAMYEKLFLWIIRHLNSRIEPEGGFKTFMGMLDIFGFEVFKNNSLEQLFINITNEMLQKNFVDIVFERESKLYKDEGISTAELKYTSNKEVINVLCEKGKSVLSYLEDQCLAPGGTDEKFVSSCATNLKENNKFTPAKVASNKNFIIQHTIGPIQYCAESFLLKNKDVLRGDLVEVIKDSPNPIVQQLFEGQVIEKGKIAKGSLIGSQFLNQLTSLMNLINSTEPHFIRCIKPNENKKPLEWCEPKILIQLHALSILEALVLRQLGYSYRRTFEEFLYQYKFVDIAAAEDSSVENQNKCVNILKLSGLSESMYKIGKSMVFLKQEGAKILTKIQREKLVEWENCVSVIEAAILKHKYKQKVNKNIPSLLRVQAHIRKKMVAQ
UniProt Q8I5I8: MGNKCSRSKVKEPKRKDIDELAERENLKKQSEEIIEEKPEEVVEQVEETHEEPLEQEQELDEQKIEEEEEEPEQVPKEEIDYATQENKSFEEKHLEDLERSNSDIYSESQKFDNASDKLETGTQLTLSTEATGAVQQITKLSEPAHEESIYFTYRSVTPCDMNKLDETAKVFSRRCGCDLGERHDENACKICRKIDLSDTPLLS

What was measured:
[1] = biological target: T1, PfMyoB-GFP (Plasmodium falciparum myosin B with C-terminal GFP) (Plasmodium falciparum 3D7) (UniProt Q8I465); experiment: co-IP; GFP-Trap agarose beads on schizont lysates (0.5% Nonidet P-40, 150 mM NaCl, 10 mM Tris-HCl pH 7.5, diluted to 0.2% detergent), 2 h at 4 °C, washes with 150 mM and 300 mM NaCl; Western blot with anti-GFP, anti-GAP50, anti-GAP45, anti-MTIP; 3D7 lysate as control
T1 sequence: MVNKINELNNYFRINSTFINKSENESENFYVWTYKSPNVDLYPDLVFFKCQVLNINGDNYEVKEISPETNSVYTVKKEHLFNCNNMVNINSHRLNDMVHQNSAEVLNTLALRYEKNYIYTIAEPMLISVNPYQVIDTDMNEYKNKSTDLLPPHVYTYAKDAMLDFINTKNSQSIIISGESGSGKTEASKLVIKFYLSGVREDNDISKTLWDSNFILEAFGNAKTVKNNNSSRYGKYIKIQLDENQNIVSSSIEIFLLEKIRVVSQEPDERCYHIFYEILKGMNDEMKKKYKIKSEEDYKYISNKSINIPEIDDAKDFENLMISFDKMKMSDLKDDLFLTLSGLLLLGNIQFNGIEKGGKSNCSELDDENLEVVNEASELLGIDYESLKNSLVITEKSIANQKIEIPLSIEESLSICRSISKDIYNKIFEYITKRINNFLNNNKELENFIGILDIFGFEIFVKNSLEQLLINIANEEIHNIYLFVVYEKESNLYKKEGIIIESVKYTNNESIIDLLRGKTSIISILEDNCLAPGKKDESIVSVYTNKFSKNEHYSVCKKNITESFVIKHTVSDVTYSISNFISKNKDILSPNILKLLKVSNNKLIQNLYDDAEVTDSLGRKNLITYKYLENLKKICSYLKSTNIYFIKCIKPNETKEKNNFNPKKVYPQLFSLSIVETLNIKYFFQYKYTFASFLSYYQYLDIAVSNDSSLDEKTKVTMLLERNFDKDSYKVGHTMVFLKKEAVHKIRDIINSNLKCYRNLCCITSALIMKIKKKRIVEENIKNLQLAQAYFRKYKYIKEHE

[2] = biological target: PfMyoA-GFP (Plasmodium falciparum myosin A with C-terminal GFP) (Plasmodium falciparum 3D7) (UniProt Q8IDR3); experiment: as above

glideosome-associated protein 45 (GAP45) (from UniProt Q8I5I8 1-204)
binding [1]: no binding
binding [2]: binds
